Earlier results in US7592330B2, “Methods and compositions for preserving the viability of photoreceptor cells” (Massachusetts Eye and Ear Infirmary, priority 2005, dated 2009).
Entries after “also recorded” stand apart in the source; their conditions may differ. At least one compound was matched to its structure with a doubt left.

Tested on: retinal ganglion cell (RGC)
Settings: experimental glaucoma (Huang et al. 2005); cited from earlier work

C=CC[C@@H]1/C=C(\C)C[C@H](C)C[C@H](OC)[C@H]2O[C@@](O)(C(=O)C(=O)N3CCCC[C@H]3C(=O)O[C@H](/C(C)=C/[C@@H]3CC[C@@H](O)[C@H](OC)C3)[C@H](C)[C@@H](O)CC1=O)[C@H](C)C[C@@H]2OC [FK506, FK506 (tacrolimus)]
retinal ganglion cell (RGC) death / neuroprotection: neuroprotective; also recorded: blunted
